Measurements reported in patent US20130165771A1 (priority 2011, published 2013).
For at least one compound, name, drawing or mass did not settle the structure.

Legend:
[1] = tested on: eye with CNV complicated with proliferated retinopathy and atrophy of choroidal circulation; assay: Comparison of Na-fluorescein, ICG and FITC-dextran fundus angiography on the eye with proliferative CNV (Example 9, Table 1); type: in vivo, rabbit
Description: Materials and Methods: the choroidal neovascularization in the eye of Dutch-belted rabbit was induced by sub-retinal injection of vascular growth factors (VGF). The proliferated retinopathy of the choroidal neovascularization membrane and the atrophy of choroidal circulation were the complications of the CNV, occurring at the late stage of the disease. […] The fundus angiograms of IGC were obtained using the fundus image system (Topcon 50 VT) at wavelength of 800 nm.

[2] = tested on: retinal pigmental endothelial cells; conditions: Table 1; no toxicity test described, ICG toxicity reported in literature; cited from earlier work
[3] = rabbit eye with proliferative CNV

Question: Which results are given for `O=C([O-])c1ccccc1-c1c2ccc(=O)cc-2oc2cc([O-])ccc12.[Na+].[Na+]` [Na-Fluorescein, sodium fluorescein]?
Answer: Angiography blocked by hemorrhage [1]: −; Visualization: Choroidal neovascularization [1, 3]: −; Visualization: Normal choroidal vessels [1, 3]: −; Visualization: Normal retinal vessels [1, 3]: +; Visualization: Retinal neovascularization [1, 3]: +; RPE toxicity [2]: −
